# According to PubChem BioAssay AID188 (DTP/NCI, 2004):
# The mice bore no tumour; each value counts animals alive of those treated. Survivors were counted at the toxicity check, usually on the fifth day, unless a day is given; later deaths do not show. Schedule codes are those of the source, read here as Q, the interval in days (D) or hours (H), X, the number of doses. Some structures stand for samples that the source files as different forms (salt, stereo form or complex); doses refer to the form tested. Counts like (3×) give the number of equal values in this list. Some entries were tested several times; the results are listed from low to high.
# System: CD2F1 mice, nontumored, toxicity/survival
# Test: NCI In Vivo Anticancer Drug Screen. Data for tumor model Nontumored Animals (Toxicity Test) in CD2F1 (CDF1) mice
compound,measurement,setting,value
NC(C/[N+]([O-])=N/O)C(=O)O (stereo not given),survivor count,"dose: 0.78 mg/kg/injection, schedule: Q01DX009 (ip), vehicle: water",10 of 10 (2×)
same,survivor count,"dose: 0.78 mg/kg/injection, schedule: Q04DX003 (ip), vehicle: water",10 of 10 (2×)
same,survivor count,"dose: 1.57 mg/kg/injection, schedule: Q01DX009 (ip), vehicle: water",10 of 10 (2×)
same,survivor count,"dose: 1.57 mg/kg/injection, schedule: Q04DX003 (ip), vehicle: water",10 of 10 (2×)
same,survivor count,"dose: 3.13 mg/kg/injection, schedule: Q01DX009 (ip), vehicle: water",10 of 10 (2×)
same,survivor count,"dose: 3.13 mg/kg/injection, schedule: Q04DX003 (ip), vehicle: water",10 of 10 (2×)
same,survivor count,"dose: 6.25 mg/kg/injection, schedule: Q01DX009 (ip), vehicle: water",10 of 10 (2×)
same,survivor count,"dose: 6.25 mg/kg/injection, schedule: Q04DX003 (ip), vehicle: water",10 of 10 (2×)
same,survivor count,"dose: 8.0 mg/kg/injection, schedule: Q03HX008 (ip), vehicle: saline",8 of 8
same,survivor count,"dose: 8.0 mg/kg/injection, schedule: Q03HX016 (ip), vehicle: saline",8 of 8
same,survivor count,"dose: 8.0 mg/kg/injection, schedule: Q03HX024 (ip), vehicle: saline",8 of 8
same,survivor count,"dose: 12.5 mg/kg/injection, schedule: Q01DX009 (ip), vehicle: water",10 of 10 (2×)
same,survivor count,"dose: 12.5 mg/kg/injection, schedule: Q04DX003 (ip), vehicle: water",10 of 10 (2×)
same,survivor count,"dose: 16.0 mg/kg/injection, schedule: Q01DX009 (ip), vehicle: saline",8 of 8
same,survivor count,"dose: 16.0 mg/kg/injection, schedule: Q01DX009 (sc), vehicle: saline",8 of 8
same,survivor count,"dose: 16.0 mg/kg/injection, schedule: Q03HX008 (ip), vehicle: saline",8 of 8
same,survivor count,"dose: 16.0 mg/kg/injection, schedule: Q03HX016 (ip), vehicle: saline",8 of 8
same,survivor count,"dose: 16.0 mg/kg/injection, schedule: Q03HX024 (ip), vehicle: saline",8 of 8
same,survivor count,"dose: 19.4 mg/kg/injection, schedule: Q01DX009 (ip), vehicle: alkali diluted with saline",5 of 5
same,survivor count,"dose: 25.0 mg/kg/injection, schedule: Q01DX009 (ip), vehicle: water",10 of 10 (2×)
same,survivor count,"dose: 25.0 mg/kg/injection, schedule: Q04DX003 (ip), vehicle: water",10 of 10 (2×)
same,survivor count,"dose: 31.3 mg/kg/injection, schedule: Q01DX009 (ip), vehicle: water",10 of 10 (2×)
same,survivor count,"dose: 31.3 mg/kg/injection, schedule: Q04DX003 (ip), vehicle: water",10 of 10 (2×)
same,survivor count,"dose: 32.0 mg/kg/injection, schedule: Q01DX009 (ip), vehicle: saline",8 of 8
same,survivor count,"dose: 32.0 mg/kg/injection, schedule: Q01DX009 (sc), vehicle: saline",8 of 8
same,survivor count,"dose: 32.0 mg/kg/injection, schedule: Q03HX008 (ip), vehicle: saline",8 of 8
same,survivor count,"dose: 32.0 mg/kg/injection, schedule: Q03HX016 (ip), vehicle: saline",8 of 8
same,survivor count,"dose: 32.0 mg/kg/injection, schedule: Q03HX024 (ip), vehicle: saline",8 of 8
same,survivor count,"dose: 32.4 mg/kg/injection, schedule: Q01DX009 (ip), vehicle: alkali diluted with saline",5 of 5
same,survivor count,"dose: 54.0 mg/kg/injection, schedule: Q01DX009 (ip), vehicle: alkali diluted with saline",5 of 5
same,survivor count,"dose: 62.5 mg/kg/injection, schedule: Q01DX009 (ip), vehicle: water",10 of 10 (2×)
same,survivor count,"dose: 62.5 mg/kg/injection, schedule: Q04DX003 (ip), vehicle: water",10 of 10 (2×)
same,survivor count,"dose: 64.0 mg/kg/injection, schedule: Q01DX001 (ip), vehicle: saline",8 of 8
same,survivor count,"dose: 64.0 mg/kg/injection, schedule: Q01DX009 (ip), vehicle: saline",8 of 8
same,survivor count,"dose: 64.0 mg/kg/injection, schedule: Q01DX009 (oral), vehicle: saline",8 of 8
same,survivor count,"dose: 64.0 mg/kg/injection, schedule: Q01DX009 (sc), vehicle: saline",8 of 8
same,survivor count,"dose: 64.0 mg/kg/injection, schedule: Q03HX008 (ip), vehicle: saline",8 of 8
same,survivor count,"dose: 64.0 mg/kg/injection, schedule: Q03HX016 (ip), vehicle: saline",8 of 8
same,survivor count,"dose: 64.0 mg/kg/injection, schedule: Q03HX024 (ip), vehicle: saline",8 of 8
same,survivor count,"dose: 64.0 mg/kg/injection, schedule: Q04DX003 (ip), vehicle: saline",8 of 8
same,survivor count,"dose: 64.0 mg/kg/injection, schedule: Q04DX003 (oral), vehicle: saline",8 of 8
same,survivor count,"dose: 64.0 mg/kg/injection, schedule: Q04DX003 (sc), vehicle: saline",8 of 8
same,survivor count,"dose: 64.0 mg/kg/injection, schedule: Q08DX002 (ip), vehicle: saline",8 of 8
same,survivor count,"dose: 90.0 mg/kg/injection, schedule: Q01DX009 (ip), vehicle: alkali diluted with saline",5 of 5
same,survivor count,"dose: 125.0 mg/kg/injection, schedule: Q01DX009 (ip), vehicle: water",10 of 10 (2×)
same,survivor count,"dose: 125.0 mg/kg/injection, schedule: Q03HX024 (ip), vehicle: saline",7 of 8
same,survivor count,"dose: 125.0 mg/kg/injection, schedule: Q04DX003 (ip), vehicle: water",10 of 10 (2×)
same,survivor count,"dose: 128.0 mg/kg/injection, schedule: Q01DX001 (ip), vehicle: saline",8 of 8
same,survivor count,"dose: 128.0 mg/kg/injection, schedule: Q01DX009 (ip), vehicle: saline",8 of 8
same,survivor count,"dose: 128.0 mg/kg/injection, schedule: Q01DX009 (oral), vehicle: saline",8 of 8
same,survivor count,"dose: 128.0 mg/kg/injection, schedule: Q01DX009 (sc), vehicle: saline",8 of 8
same,survivor count,"dose: 128.0 mg/kg/injection, schedule: Q03HX008 (ip), vehicle: saline",8 of 8
same,survivor count,"dose: 128.0 mg/kg/injection, schedule: Q03HX016 (ip), vehicle: saline",8 of 8
same,survivor count,"dose: 128.0 mg/kg/injection, schedule: Q04DX003 (ip), vehicle: saline",8 of 8
same,survivor count,"dose: 128.0 mg/kg/injection, schedule: Q04DX003 (oral), vehicle: saline",8 of 8
same,survivor count,"dose: 128.0 mg/kg/injection, schedule: Q04DX003 (sc), vehicle: saline",8 of 8
same,survivor count,"dose: 128.0 mg/kg/injection, schedule: Q08DX002 (ip), vehicle: saline",8 of 8
same,survivor count,"dose: 150.0 mg/kg/injection, schedule: Q01DX009 (ip), vehicle: alkali diluted with saline",5 of 5
same,survivor count,"dose: 250.0 mg/kg/injection, schedule: Q01DX009 (ip), vehicle: water",8 of 10 and 10 of 10
same,survivor count,"dose: 250.0 mg/kg/injection, schedule: Q04DX003 (ip), vehicle: water",10 of 10 (2×)
same,survivor count,"dose: 256.0 mg/kg/injection, schedule: Q01DX001 (ip), vehicle: saline",8 of 8
same,survivor count,"dose: 256.0 mg/kg/injection, schedule: Q01DX009 (ip), vehicle: saline",6 of 8
same,survivor count,"dose: 256.0 mg/kg/injection, schedule: Q01DX009 (oral), vehicle: saline",7 of 8
same,survivor count,"dose: 256.0 mg/kg/injection, schedule: Q01DX009 (sc), vehicle: saline",8 of 8
same,survivor count,"dose: 256.0 mg/kg/injection, schedule: Q03HX008 (ip), vehicle: saline",5 of 8
same,survivor count,"dose: 256.0 mg/kg/injection, schedule: Q03HX016 (ip), vehicle: saline",2 of 8
same,survivor count,"dose: 256.0 mg/kg/injection, schedule: Q03HX024 (ip), vehicle: saline",3 of 8
same,survivor count,"dose: 256.0 mg/kg/injection, schedule: Q04DX003 (ip), vehicle: saline",8 of 8
same,survivor count,"dose: 256.0 mg/kg/injection, schedule: Q04DX003 (oral), vehicle: saline",8 of 8
same,survivor count,"dose: 256.0 mg/kg/injection, schedule: Q04DX003 (sc), vehicle: saline",8 of 8
same,survivor count,"dose: 256.0 mg/kg/injection, schedule: Q08DX002 (ip), vehicle: saline",8 of 8
same,survivor count,"dose: 500.0 mg/kg/injection, schedule: Q01DX009 (ip), vehicle: water",4 of 10 and 5 of 10
same,survivor count,"dose: 500.0 mg/kg/injection, schedule: Q04DX003 (ip), vehicle: water",10 of 10 (2×)
same,survivor count,"dose: 512.0 mg/kg/injection, schedule: Q01DX001 (ip), vehicle: saline",8 of 8
same,survivor count,"dose: 512.0 mg/kg/injection, schedule: Q01DX009 (ip), vehicle: saline",2 of 8
same,survivor count,"dose: 512.0 mg/kg/injection, schedule: Q01DX009 (oral), vehicle: saline",5 of 8
same,survivor count,"dose: 512.0 mg/kg/injection, schedule: Q01DX009 (sc), vehicle: saline",3 of 8
same,survivor count,"dose: 512.0 mg/kg/injection, schedule: Q04DX003 (ip), vehicle: saline",8 of 8
same,survivor count,"dose: 512.0 mg/kg/injection, schedule: Q04DX003 (oral), vehicle: saline",8 of 8
same,survivor count,"dose: 512.0 mg/kg/injection, schedule: Q04DX003 (sc), vehicle: saline",8 of 8
same,survivor count,"dose: 512.0 mg/kg/injection, schedule: Q08DX002 (ip), vehicle: saline",8 of 8
same,survivor count,"dose: 1000.0 mg/kg/injection, schedule: Q01DX009 (ip), vehicle: water",0 of 10 and 5 of 10
same,survivor count,"dose: 1000.0 mg/kg/injection, schedule: Q04DX003 (ip), vehicle: water",7 of 10 and 10 of 10
same,survivor count,"dose: 1024.0 mg/kg/injection, schedule: Q01DX001 (ip), vehicle: saline",5 of 8
same,survivor count,"dose: 1024.0 mg/kg/injection, schedule: Q01DX009 (oral), vehicle: saline",0 of 8
same,survivor count,"dose: 1024.0 mg/kg/injection, schedule: Q04DX003 (ip), vehicle: saline",7 of 8
same,survivor count,"dose: 1024.0 mg/kg/injection, schedule: Q04DX003 (oral), vehicle: saline",6 of 8
same,survivor count,"dose: 1024.0 mg/kg/injection, schedule: Q04DX003 (sc), vehicle: saline",7 of 8
same,survivor count,"dose: 1024.0 mg/kg/injection, schedule: Q08DX002 (ip), vehicle: saline",8 of 8
same,survivor count,"dose: 2048.0 mg/kg/injection, schedule: Q01DX001 (ip), vehicle: saline",0 of 8
same,survivor count,"dose: 2048.0 mg/kg/injection, schedule: Q01DX009 (oral), vehicle: saline",0 of 8
same,survivor count,"dose: 2048.0 mg/kg/injection, schedule: Q04DX003 (ip), vehicle: saline",0 of 8
same,survivor count,"dose: 2048.0 mg/kg/injection, schedule: Q04DX003 (oral), vehicle: saline",2 of 8
same,survivor count,"dose: 2048.0 mg/kg/injection, schedule: Q04DX003 (sc), vehicle: saline",0 of 8
same,survivor count,"dose: 2048.0 mg/kg/injection, schedule: Q08DX002 (ip), vehicle: saline",0 of 8
